{"source": "patent US6566397B2", "about": "“Acyclic isoprenoid ether derivatives as chemotherapeutics” (Wisconsin Alumni Research Foundation, priority 2000, dated 2003)", "test_system": "Murine B16 F10 melanoma cells", "test": "Growth of murine B16 F10 melanoma cells in monolayer culture, viable cell count by hemocytometer, photomicrographs", "assay_type": "cell-based", "conditions": "5 μmol/L, photomicrographs FIG. 2", "experimental": "Murine B16 F10 melanoma cells (He, L., et al., supra, 1997) were grown in monolayer culture (35×10 mm tissue culture dishes) in 3 ml RPMI 1640 medium (Sigma Biosciences, St. Louis, Mo.) supplemented with 10% fetal bovine serum (FBS, Sigma Biosciences) and 2% penicillin/streptomycin (Penicillin-Streptomycin Liquid, 1×10^7 units penicilin and 1×10^7 μg streptomycin/L of 0.85% saline, GIBCO BRL, Grand Island, N.Y.). Cultures, seeded with 3.3×10^4 cells/mL, were incubated for 24 hours at 37° C. in a humidified atmosphere of 5% CO2. The medium was decanted and replaced with fresh medium containing the test agents and incubations were continued for 48 hours. M363 and M364 were dissolved in ethanol, and lovastatin (Mevinolin, Sigma) in chloroform. […] The medium and detached (apoptotic) cells were decanted, the monolayer was washed twice with Hanks' Balanced Salt Solution (HBSS, Sigma Biosciences) and then incubated with a trypsin-EDTA solution (Sigma Biosciences) at 37° C. for 2 minutes. Trypsin was inactivated by suspending the cells in medium containing 10% FBS. The trypsinized cells were harvested by centrifugation (250×g) and re-suspended in HBSS. Viable cells, cells that excluded 0.4% trypan blue (GIBCO BRL), were counted with a hemocytometer; 0-time (24-h) cell counts were deducted from final cell counts to provide an estimate of the net increase in cell number. […]", "note": "Some entries share one result that the patent states for a list of compounds. For at least one compound, name, drawing or mass did not settle the structure."}
{"smiles": "CC(=O)Oc1ccc(OCC=C(C)CCC=C(C)C)cc1", "note": "[M363, [4-(3,7-dimethyl-2,6-octadienyloxy]-phenyl acetate]", "values": [{"measurement": "reduction of cell number", "result": "more than 50%"}]}
{"smiles": "CC(=O)Oc1ccc(OCC=C(C)CCC=C(C)CCC=C(C)C)cc1", "note": "[M364, [4-(3,7,11-trimethyl-2,6,10-dodecatrienyloxy]-phenyl acetate]", "values": [{"measurement": "reduction of cell number", "result": "more than 50%"}]}
